Source: PubChem BioAssay AID1487 (National Center for Advancing Translational Sciences (NCATS), 2009)
Values joined by “and” are separate entries in the source; they are usually repeats but may differ in a detail not shown here. Identical values can stand only once. The list shows a part of the results. The main result of the screen is listed elsewhere. These columns were measured beside it and carry no call. The list favours compounds with an active or inconclusive main result. The note in brackets gives the kind of curve behind each potency; many fits are weak.

Experiment: qHTS Assay for Modulators of Lamin A Splicing
Details: HeLa LMNA splicing GFP/RFP minigene ratio, 48 h
In short: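 S3 HeLa cells stably expressing lamin A-EGFP splicing minigene plus DsRed2, 600 cells/well, 48 h compound exposure at 37C. Laser-scanning cytometry; analysed as GFP (500-530 nm)/RFP (575-640 nm) total intensity ratio; 0.5% DMSO vehicle.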

[1] = measured here: GFP splicing reporter channel
[2] = measured here: RFP viability control channel

SMILES | AC50 [1] | AC50 [2]
CC1=C(C(N)=O)C(c2ccc3c(c2)OCO3)n2nc(-c3cccc(C)c3)nc2N1 (stereo not given) | 35.5 µM [falling, single point] | 35.5 µM [falling, single point]
O=C(Nc1nc(-c2cc(F)ccc2F)cs1)c1ccccn1 | 35.5 µM [rising, single point] | 25.1 µM [rising, partial curve]
O=C(/C=C/c1cccs1)Nc1cccc(NC(=O)/C=C/c2cccs2)n1 | – | 35.5 µM [rising, single point]
COc1ccc(Cc2nc(-c3ccc(-n4cccc4)cc3)no2)cc1 | – | 35.5 µM [rising, single point]
COc1ccc(CCN2C(=S)NC3CC2(C)Oc2ccc([N+](=O)[O-])cc23)cc1OC (stereo not given) | – | 14.1 µM [rising, single point]
NNC(=O)CSCc1nc(-c2ccccc2)cs1 | – | 0.501 µM [falling, full curve]
Cc1ccc(Nc2nc(-c3ccccc3)nc3ccccc23)cc1 | 35.5 µM [falling, partial curve] | 20 µM [falling, partial curve, poor fit]
CCc1cccc(CC)c1NC(=S)NCCc1c(C)[nH]c2ccccc12 | 5.62 µM [falling, single point] | –
CC(C)(C)c1ccc(S(=O)(=O)Nc2cccc(C3OCCCO3)c2)cc1 | – | 14.1 µM [rising, partial curve]
COc1ccc(NC(=O)c2ccc(-c3ccc(OC)cc3)s2)cc1 | 1.58 µM [falling, full curve, poor fit] | 35.5 µM [falling, single point]
Cc1ccc(S(=O)(=O)NC(=O)NN2CCCCCC2)cc1 | 2 nM [falling, full curve, poor fit] and 14.1 µM [rising, single point] and 17.8 µM [rising, partial curve, poor fit] | –
O=C1CCc2cc(S(=O)(=O)NCCC(=O)N3CCN(c4cccc(Cl)c4)CC3)ccc2N1 | – | 35.5 µM [rising, single point]
O=C(Cn1c(-c2cccs2)cc2ccccc21)N1CCN(c2ccc(Cl)cc2)CC1 | 0.0224 µM [rising, full curve, poor fit] | –
COc1ccc(-c2cn3c(n2)sc2cc(C(=O)NCCC4=CCCCC4)ccc23)cc1 | 0.0224 µM [rising, full curve] | –
Brc1ccc(-c2nc(N/N=C/c3cccnc3)c3ccccc3n2)cc1 | 17.8 µM [rising, single point] | 15.8 µM [rising, single point]
O=C(NC(=S)Nc1ccccc1Cl)c1csnn1 | 0.891 µM [rising, full curve] | 1.12 µM [rising, full curve]
CCCCn1c(SCc2nnc(-c3ccccc3)o2)nc2c1c(=O)n(C)c(=O)n2C | – | 4.47 µM [rising, partial curve]
CCC1=NN(C(=O)c2ccc(Br)cc2)C(O)(c2ccc(C)cc2)C1 (stereo not given) | – | 35.5 µM [rising, single point]
COc1cc(NC(=O)Nc2ccccc2OC)c(OC)cc1NC(=O)CN1CCCCC1 | 12.6 µM [falling, single point] | 15.8 µM [falling, single point]
N#C/C(=C/c1ccc(N2CCCCC2)o1)C(=O)Nc1ccc2ccccc2c1 | 3.98 µM [falling, full curve] | 3.55 µM [falling, full curve]
COCCCN1CN(S(=O)(=O)c2ccc(Cl)cc2)c2nc3ccccc3nc21 | 35.5 µM [rising, single point] | 12.6 µM [rising, single point]
Cc1ccc([N+](=O)[O-])cc1S(=O)(=O)n1ccnc1C | 35.5 µM [falling, single point] | –
Cc1ccc(C)n1CCN1CCN(CC(=O)Nc2ccc(S(N)(=O)=O)cc2)CC1 | 1.26 µM [rising, partial curve, poor fit] | –
CCN(CC)S(=O)(=O)c1ccc(C(=O)NNC(=O)c2cccs2)cc1 | – | 2 µM [rising, full curve]
N/C(=N\c1nc(CSc2nnnn2-c2ccccc2)cc(=O)[nH]1)Nc1ccccc1 | 0.00316 µM [falling, full curve, poor fit] | 0.00355 µM [falling, full curve, poor fit]
COc1ccc(C2c3[nH]c4ccccc4c3CCN2Cc2ccoc2)c(F)c1 (stereo not given) | – | 25.1 µM [rising, partial curve]
O=C(O)C1CC=CCC1C(=O)Nc1ccc(Oc2ccc(Cl)cc2)cc1 (stereo not given) | – | 15.8 µM [rising, single point]

SMILES | AC50 [1] | AC50 [2]
COc1cc2c(CCNC(C)=O)c[nH]c2cc1Cl | – | 0.001 µM [falling, full curve, poor fit]
CCN(CC)S(=O)(=O)c1ccc(Cl)c(C(=O)Nc2cc(C)nn2-c2ccccc2C(F)(F)F)c1 | 12.6 µM [rising, single point] | 31.6 µM [rising, single point]
O=C1C=C(c2ccc(Cl)cc2)C(=O)N1Nc1ccccc1 | 14.1 µM [falling, single point] | 14.1 µM [falling, partial curve]
Cc1cc(Br)cc(C)c1NC(=O)c1sc2ncn(Cc3cccc(F)c3)c(=O)c2c1C | – | 0.00316 µM [falling, full curve, poor fit]
CN(C)c1ccc(/C=N/N=C2/NC(=O)/C(=C/c3ccc([N+](=O)[O-])cc3)S2)cc1 | 12.6 µM [rising, partial curve] | –
CCn1c(SC(C)C)nnc1-c1cc(-c2ccccc2)sc1N | 12.6 µM [rising, partial curve] | 20 µM [rising, partial curve]
CCCCn1c2c(c(=N)c3c1CCC3)CCC2 | – | 2.82 µM [rising, partial curve]
Cc1ccc(NC(=O)CCn2c(=O)c3cccn3c3ccccc32)cc1Cl | 7.08 µM [rising, partial curve, poor fit] | 3.98 µM [rising, full curve, poor fit]
COc1cccc(C2CC(c3c(-c4ccccc4)c4cc(Cl)ccc4[nH]c3=O)=NN2S(C)(=O)=O)c1OC (stereo not given) | – | 35.5 µM [rising, single point]
O=S(=O)(c1ccc(Br)cc1)N1CCCN(Cc2ccccc2F)CC1 | 15.8 µM [rising, single point] | 35.5 µM [rising, single point]
O=C(Nc1ccccc1)c1ccc(Nc2c([N+](=O)[O-])cc([N+](=O)[O-])c3ccccc23)cc1 | 3.98 µM [rising, partial curve] | 12.6 µM [rising, partial curve]
COc1ccc2c(c1)sc1nc(-c3ccccc3)cn12 | – | 2 µM [rising, full curve, poor fit]
O=C(NCc1cccnc1)c1nc(-c2cccs2)no1 | 0.0708 µM [falling, full curve, poor fit] | 0.0316 µM [falling, full curve, poor fit]
Cc1ccccc1OCc1nc2ccccc2c(=O)n1/N=C/c1cn[nH]c1-c1ccc(Br)cc1 | 6.31 µM [rising, full curve, poor fit] | 12.6 µM [rising, partial curve, poor fit]
CC(C)OCCCNC(=S)Nc1ccc(S(N)(=O)=O)cc1 | 6.31 µM [rising, single point] | –
COc1ccc(C(=O)c2c(C)oc3cc([N+](=O)[O-])c(O)c([N+](=O)[O-])c23)cc1 | 15.8 µM [rising, partial curve, poor fit] | 12.6 µM [rising, partial curve, poor fit]
Cc1ccc(-n2ncc3c(Nc4cccc(C(F)(F)F)c4)ncnc32)cc1C | 17.8 µM [falling, partial curve] | 22.4 µM [falling, partial curve, poor fit]
C/C(CC(=O)NCc1ccco1)=N\NC(=O)CC#N | 0.00708 µM [rising, full curve, poor fit] | –
COC(=O)c1c(-c2ccc(C)cc2)csc1NC(=O)c1c(-c2ccccc2)noc1C | – | 7.08 µM [rising, full curve]
C=CCn1c(=NC(=O)c2ccco2)sc2cc(C(=O)OCC)ccc21 | – | 3.16 µM [rising, single point]
CCOC(=O)c1ccc(NS(=O)(=O)c2ccc(Cl)nc2)cc1 | 3.55 µM [falling, partial curve, poor fit] | –
NS(=O)(=O)c1ccc(NC(=O)c2csnn2)cc1 | 0.794 µM [falling, full curve] | –
COc1ccc(OCC2c3cc(OC)c(OC)cc3CCN2C(=O)c2c(F)cccc2F)cc1 (stereo not given) | – | 11.2 µM [rising, single point]
O=C(c1ccc(Cl)c(Cl)c1)c1cc(-c2ccccn2)c(N2CCOCC2)s1 | 11.2 µM [falling, partial curve, poor fit] | 11.2 µM [falling, partial curve, poor fit]
Cc1c(/C=C/C(=O)c2ccc(C(C)C)cc2)cnn1C | 6.31 µM [rising, partial curve, poor fit] | 3.55 µM [rising, partial curve]
CC1CN(S(=O)(=O)c2cccc(-c3cn4cccnc4n3)c2)CC(C)O1 (stereo not given) | – | 0.00501 µM [rising, full curve, poor fit]
